In paper PMC12667445, “Targeting RBM10‐Repressed RORB Activity in Liquid Condensates Inhibits Lysosomal Biogenesis and Neuroblastoma Progression via Affecting NF‐κB Signaling” (Advanced Science, 2025):
These are yes or no findings as the source states them, for the method shown. In cells and extracts the contact can be indirect.

Protein sequences, listed by entry. Tags and fused reporters are not part of them. Lines headed by an entry give the natural chain unless they say otherwise; changes in a name come on top.
UniProt P98175: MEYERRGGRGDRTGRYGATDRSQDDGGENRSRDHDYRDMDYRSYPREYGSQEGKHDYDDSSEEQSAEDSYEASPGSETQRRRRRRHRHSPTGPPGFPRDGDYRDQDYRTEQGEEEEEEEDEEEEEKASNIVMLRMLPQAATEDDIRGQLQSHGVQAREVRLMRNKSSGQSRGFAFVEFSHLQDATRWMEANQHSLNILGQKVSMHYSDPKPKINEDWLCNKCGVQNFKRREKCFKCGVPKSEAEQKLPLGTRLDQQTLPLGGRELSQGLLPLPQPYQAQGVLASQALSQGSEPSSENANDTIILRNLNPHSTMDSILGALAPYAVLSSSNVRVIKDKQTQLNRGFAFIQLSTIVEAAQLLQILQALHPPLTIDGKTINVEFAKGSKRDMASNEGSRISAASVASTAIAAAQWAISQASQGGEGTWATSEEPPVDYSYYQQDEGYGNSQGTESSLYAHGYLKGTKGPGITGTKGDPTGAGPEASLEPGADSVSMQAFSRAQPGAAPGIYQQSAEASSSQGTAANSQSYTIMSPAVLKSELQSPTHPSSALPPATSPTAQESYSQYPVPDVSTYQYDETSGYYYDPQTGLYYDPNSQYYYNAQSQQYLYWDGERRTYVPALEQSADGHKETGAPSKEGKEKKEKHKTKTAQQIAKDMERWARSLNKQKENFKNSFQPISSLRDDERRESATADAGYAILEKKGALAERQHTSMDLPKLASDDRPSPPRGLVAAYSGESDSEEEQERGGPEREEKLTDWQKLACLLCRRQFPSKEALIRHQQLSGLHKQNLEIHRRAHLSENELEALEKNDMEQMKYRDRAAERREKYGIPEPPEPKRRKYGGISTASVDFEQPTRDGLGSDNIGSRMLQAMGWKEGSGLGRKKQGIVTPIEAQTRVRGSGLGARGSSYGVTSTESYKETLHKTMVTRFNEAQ

Experiments:
[1] = molecular target: RORB with mutation in AF2 domain, BiFC construct (UniProt Q92753); assay: split reporter; BiFC in SK-N-BE(2) cells; fluorescence within the nucleus
RORB, BiFC construct = molecular target: T1, RORB, BiFC construct (UniProt Q92753); assay: as above
T1 sequence: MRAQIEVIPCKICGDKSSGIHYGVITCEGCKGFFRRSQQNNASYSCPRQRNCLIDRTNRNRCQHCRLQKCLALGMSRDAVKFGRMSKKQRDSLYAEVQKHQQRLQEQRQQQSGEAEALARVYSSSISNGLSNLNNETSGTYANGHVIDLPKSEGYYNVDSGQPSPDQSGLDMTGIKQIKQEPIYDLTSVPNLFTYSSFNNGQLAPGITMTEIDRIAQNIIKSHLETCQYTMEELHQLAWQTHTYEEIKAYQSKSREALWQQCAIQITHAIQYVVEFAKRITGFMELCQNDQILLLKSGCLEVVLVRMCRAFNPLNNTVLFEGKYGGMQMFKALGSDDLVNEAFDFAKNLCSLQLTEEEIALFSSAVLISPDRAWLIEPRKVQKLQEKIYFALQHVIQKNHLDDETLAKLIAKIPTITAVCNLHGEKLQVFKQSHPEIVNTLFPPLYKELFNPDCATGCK

Substance | binding [1] | binding (RORB, BiFC construct)
RBM10, BiFC construct (from UniProt P98175 1-930) | no binding | –
RBM10 with mutation in RRM2 domain, BiFC construct (from UniProt P98175) | – | no binding
